PubChem BioAssay AID1159578 – Peter MacCallum Cancer Centre – 2015

Screen: 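siRNA pools altering how lymphatic endothelial cells close a scratch wound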 (primary screen)
Cells: human lymphatic endothelial cells
Reagent: siRNA pool against human genes, 40 nM
Time to read-out: 48 h after transfection
Measurement: 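Cells stained with dye and imaged after a scratch; covered wound area and nuclei counted, duplicates averaged, migration set against mock wells and turned into a robust z-score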
Reading the numbers: migration robust z-score: higher = faster migration into the scratch; migration relative to mock: higher = more scratch area covered than mock; nuclei per well: higher = more cells in the well
Call rule: 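Migration changed when robust z exceeds 2 or falls below -2 and mean nuclei number is at least 3300; otherwise not called changed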
Meaning of the calls: active = migration changed; inactive = no migration change, or too few cells
Shown is one part, drawn at random, of about 18,000 reagents. About 1,030 of all reagents (5.7%) were called active. 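Inactive calls also include pools with fewer than 3300 nuclei, whose migration was not assessed.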 Raw values are not corrected between plates. A number with no mark means an inactive call.

| gene | migration robust z-score | migration class with cell-count check | migration relative to mock | nuclei per well, duplicate mean |
| --- | --- | --- | --- | --- |
| RPF2 (ribosome production factor 2 homolog) | -0.78 | migration z between -2 and 2; enough cells | 0.68 | 4348 |
| MAP3K5 (mitogen-activated protein kinase kinase kinase 5) | 1.17 | migration z between -2 and 2; enough cells | 1.03 | 6095 |
| SDCBP2 (syndecan binding protein 2) | 1.03 | migration z between -2 and 2; enough cells | 1.16 | 4919 |
| FAM229B (family with sequence similarity 229 member B) | -0.29 | migration z between -2 and 2; enough cells | 0.81 | 4255 |
| GRID1 (glutamate ionotropic receptor delta type subunit 1) | 0.6 | migration z between -2 and 2; enough cells | 0.92 | 5522 |
| TNFRSF13C (TNF receptor superfamily member 13C) | -0.27 | migration z between -2 and 2; enough cells | 0.82 | 5260 |
| FNDC8 (fibronectin type III domain containing 8) | -2.21 (active) | migration z below -2; enough cells | 0.31 | 4984 |
| CRMA (cardiomyocyte maturation associated lncRNA) | -2.34 (active) | migration z below -2; enough cells | 0.28 | 5270 |
| H4C1 (H4 clustered histone 1) | 0.81 | migration z between -2 and 2; enough cells | 1.1 | 5816 |
| OFD1 (OFD1 centriole and centriolar satellite protein) | 0.08 | migration z between -2 and 2; enough cells | 0.9 | 7090 |
| CHRNA5 (cholinergic receptor nicotinic alpha 5 subunit) | -0.55 | migration z between -2 and 2; enough cells | 0.7 | 4996 |
| RHEB (Ras homolog, mTORC1 binding) | -1.85 | migration z between -2 and 2; enough cells | 0.45 | 4986 |
| ACE (angiotensin I converting enzyme) | -0.54 | migration z between -2 and 2; enough cells | 0.7 | 5612 |
| SLC16A7 | -1.4 | migration z between -2 and 2; enough cells | 0.54 | 4950 |
| PAQR6 (progestin and adipoQ receptor family member 6) | -0.44 | migration z between -2 and 2; enough cells | 0.78 | 5444 |
| BHMT (betaine--homocysteine S-methyltransferase) | 0.68 | migration z between -2 and 2; enough cells | 0.94 | 5452 |
| CCDC126 (coiled-coil domain containing 126) | -1.24 | migration z between -2 and 2; enough cells | 0.56 | 5430 |
| PNLIPRP3 (pancreatic lipase related protein 3) | -0.9 | migration z between -2 and 2; enough cells | 0.63 | 5940 |
| SPR (sepiapterin reductase) | 0.64 | migration z between -2 and 2; enough cells | 0.93 | 5718 |
| MAPRE3 (microtubule associated protein RP/EB family member 3) | 1.22 | migration z between -2 and 2; enough cells | 1.04 | 6105 |
| CYP3A7 (cytochrome P450 family 3 subfamily A member 7) | -0.26 | migration z between -2 and 2; enough cells | 0.82 | 6434 |

Look-ups from above.
Value for MAP3K5 (mitogen-activated protein kinase kinase kinase 5) under “migration relative to mock”: 1.03
FAM229B (family with sequence similarity 229 member B), migration robust z-score = -0.29
PNLIPRP3 (pancreatic lipase related protein 3), migration relative to mock = 0.63
Value for TNFRSF13C (TNF receptor superfamily member 13C) under “migration robust z-score”: -0.27
CHRNA5 (cholinergic receptor nicotinic alpha 5 subunit), migration class with cell-count check = migration z between -2 and 2; enough cells

Continued.
| gene | migration robust z-score | migration class with cell-count check | migration relative to mock | nuclei per well, duplicate mean |
| --- | --- | --- | --- | --- |
| SHC1 (SHC adaptor protein 1) | -0.54 | under 3300 nuclei; migration not judged | 0.7 | 1598 |
| FASLG (Fas ligand) | -0.6 | migration z between -2 and 2; enough cells | 0.74 | 4753 |
| TUBG2 (tubulin gamma 2) | 0.07 | migration z between -2 and 2; enough cells | 0.9 | 5399 |
| PTK6 (protein tyrosine kinase 6) | -0.39 | migration z between -2 and 2; enough cells | 0.73 | 5099 |
| ADGRF3 (adhesion G protein-coupled receptor F3) | 0.54 | migration z between -2 and 2; enough cells | 0.91 | 5588 |
| SVOPL (SVOP like) | -1.27 | migration z between -2 and 2; enough cells | 0.55 | 7118 |
| SERBP1 (SERPINE1 mRNA binding protein 1) | 0.32 | migration z between -2 and 2; enough cells | 0.97 | 5488 |
| MAL (mal, T cell differentiation protein (MAL blood group)) | -0.03 | migration z between -2 and 2; enough cells | 0.88 | 6638 |
| GADL1 (GAD like acidic amino acid decarboxylase 1) | 0.2 | migration z between -2 and 2; enough cells | 0.84 | 6274 |
| OR51B2 (olfactory receptor family 51 subfamily B member 2) | -0.34 | migration z between -2 and 2; enough cells | 0.8 | 5720 |
| ABAT (4-aminobutyrate aminotransferase) | 0.42 | migration z between -2 and 2; enough cells | 0.88 | 5252 |
| EFCAB13 (EF-hand calcium binding domain 13) | -1.39 | migration z between -2 and 2; enough cells | 0.53 | 4224 |
| ZNF700 (zinc finger protein 700) | -0.2 | migration z between -2 and 2; enough cells | 0.84 | 6365 |
| PLAGL2 (PLAG1 like zinc finger 2) | -0.52 | migration z between -2 and 2; enough cells | 0.71 | 5810 |
| UFSP1 (UFM1 specific peptidase 1) | -0.64 | migration z between -2 and 2; enough cells | 0.72 | 6526 |
| MYO5B (myosin VB) | 1.38 | migration z between -2 and 2; enough cells | 1.07 | 5178 |
| PPHLN1 (periphilin 1) | -0.77 | migration z between -2 and 2; enough cells | 0.68 | 5308 |
| PKDCC (protein kinase domain containing, cytoplasmic) | -2.86 | under 3300 nuclei; migration not judged | 0.26 | 3004 |
| DDX27 (DEAD-box helicase 27) | -2.08 | under 3300 nuclei; migration not judged | 0.4 | 3103 |
| COL4A4 (collagen type IV alpha 4 chain) | 1.09 | migration z between -2 and 2; enough cells | 1.17 | 6272 |
| ALDH1A2 (aldehyde dehydrogenase 1 family member A2) | 0.68 | migration z between -2 and 2; enough cells | 0.94 | 5608 |
| HR (HR lysine demethylase and nuclear receptor corepressor) | -0.46 | migration z between -2 and 2; enough cells | 0.72 | 5282 |
| NSMF | -0.86 | migration z between -2 and 2; enough cells | 0.66 | 5806 |
| FLI1 (Fli-1 proto-oncogene, ETS transcription factor) | -0.13 | migration z between -2 and 2; enough cells | 0.78 | 4737 |
| PRSS33 (serine protease 33) | 0.36 | migration z between -2 and 2; enough cells | 0.88 | 5955 |
| KBTBD3 (kelch repeat and BTB domain containing 3) | 0.67 | migration z between -2 and 2; enough cells | 1.06 | 5202 |
| PROSER2 (proline and serine rich 2) | -0.26 | migration z between -2 and 2; enough cells | 0.82 | 5088 |
| SETBP1 (SET binding protein 1) | -1.52 | migration z between -2 and 2; enough cells | 0.49 | 4774 |
| TESK1 (testis associated actin remodelling kinase 1) | -2.23 (active) | migration z below -2; enough cells | 0.38 | 4078 |
| SRBD1 (S1 RNA binding domain 1) | -1.19 | migration z between -2 and 2; enough cells | 0.58 | 5506 |
| IFNA14 (interferon alpha 14) | -1.66 | migration z between -2 and 2; enough cells | 0.46 | 5945 |
| DNAAF11 (dynein axonemal assembly factor 11) | 0.7 | migration z between -2 and 2; enough cells | 1.06 | 6064 |
| FBXO10 (F-box protein 10) | -0.47 | migration z between -2 and 2; enough cells | 0.72 | 5724 |
| BTN2A3P (butyrophilin subfamily 2 member A3, pseudogene) | -0.94 | migration z between -2 and 2; enough cells | 0.62 | 5838 |
| CKAP5 (cytoskeleton associated protein 5) | -1.47 | migration z between -2 and 2; enough cells | 0.5 | 4467 |
| ISLR (immunoglobulin superfamily containing leucine rich repeat) | -0.66 | migration z between -2 and 2; enough cells | 0.72 | 4596 |
